{"source": "PubChem BioAssay AID504793 (Drosophila RNAi Screening Center, 2011)", "assay": "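Knock-downs allowing continued mitosis even though DNA is damaged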 (primary screen)", "cell system": "Drosophila S2R+ cells", "knock-down reagent": "long dsRNA against Drosophila genes, about 0.25 µg dsRNA per well", "time to read-out": "4 days of dsRNA, then 4 hours of drug before read-out", "conditions": "doxorubicin 0.5 µM for 4 hours to cause double-strand breaks, in cells also given a low, harmless dose of dsRNA against nbs to sensitise the assay", "detection": "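Per-well count of mitotic cells stained for phospho-histone H3 after doxorubicin exposure, used as mitotic index; counts are raw and not normalised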", "direction": "mitotic cells: higher = more cells in mitosis, weaker G2 arrest", "active means": "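a call needs confirmation in secondary tests, with other dsRNAs and a check of mitotic timing without damage, not just a high primary count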", "calls": "active = confirmed in follow-up tests; inactive = not confirmed", "note": "In all, the deposit lists about 23,000 reagents; shown is an unselected part of those with a known target gene and a result. Over the whole deposit, 62 (0.27%) are marked active. 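Calls come from follow-up tests whose scores are not deposited, so confirmed genes may have low counts here; counts are not normalised per plate.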 The raw values are shown without normalisation. Reagent sequences are not shown."}
{"target":"CG6788","amplicon":"DRSC20007","mitotic cells, replicate 1":15,"Call":"inactive"}
{"target":"CG6788","amplicon":"DRSC24906","mitotic cells, replicate 1":10,"Call":"inactive"}
{"target":"Ugt35E2 (UDP-glycosyltransferase family 35 member E2)","amplicon":"DRSC16083","mitotic cells, replicate 1":3,"Call":"inactive"}
{"target":"Ugt35E2 (UDP-glycosyltransferase family 35 member E2)","amplicon":"DRSC27356","mitotic cells, replicate 1":4,"Call":"inactive"}
{"target":"CG13332","amplicon":"DRSC06367","mitotic cells, replicate 1":7,"Call":"inactive"}
{"target":"CG14301","amplicon":"DRSC14780","mitotic cells, replicate 1":17,"Call":"inactive"}
{"target":"Meics (Meiotic central spindle)","amplicon":"DRSC11413","mitotic cells, replicate 1":2,"Call":"inactive"}
{"target":"Meics (Meiotic central spindle)","amplicon":"DRSC29541","mitotic cells, replicate 1":9,"Call":"inactive"}
{"target":"CG6610","amplicon":"DRSC10674","mitotic cells, replicate 1":3,"Call":"inactive"}
{"target":"CkIalpha (Casein kinase Ialpha)","amplicon":"DRSC20231","mitotic cells, replicate 1":18,"Call":"inactive"}
{"target":"CkIalpha (Casein kinase Ialpha)","amplicon":"DRSC22609","mitotic cells, replicate 1":11,"Call":"inactive"}
{"target":"CkIalpha (Casein kinase Ialpha)","amplicon":"DRSC23308","mitotic cells, replicate 1":7,"Call":"inactive"}
{"target":"CkIalpha (Casein kinase Ialpha)","amplicon":"DRSC25564","mitotic cells, replicate 1":8,"Call":"inactive"}
{"target":"js (jiangshi)","amplicon":"DRSC15004","mitotic cells, replicate 1":6,"Call":"inactive"}
{"target":"Cyt-c1 (Cytochrome c1)","amplicon":"DRSC10447","mitotic cells, replicate 1":7,"Call":"inactive"}
{"target":"Cyt-c1 (Cytochrome c1)","amplicon":"DRSC29221","mitotic cells, replicate 1":10,"Call":"inactive"}
{"target":"CG17612","amplicon":"DRSC00505","mitotic cells, replicate 1":8,"Call":"inactive"}
{"target":"CG17612","amplicon":"DRSC28366","mitotic cells, replicate 1":5,"Call":"inactive"}
{"target":"CG1213","amplicon":"DRSC12191","mitotic cells, replicate 1":6,"Call":"inactive"}

4 entries from above in another layout:
{"target": "Meics (Meiotic central spindle)", "amplicon": "DRSC29541", "mitotic cells, replicate 1": 9, "Call": "inactive"}
{"target": "CG6610", "amplicon": "DRSC10674", "mitotic cells, replicate 1": 3, "Call": "inactive"}
{"target": "CkIalpha (Casein kinase Ialpha)", "amplicon": "DRSC20231", "mitotic cells, replicate 1": 18, "Call": "inactive"}
{"target": "CkIalpha (Casein kinase Ialpha)", "amplicon": "DRSC22609", "mitotic cells, replicate 1": 11, "Call": "inactive"}

More reagents follow.
{"target":"Sgs3 (Salivary gland secretion 3)","amplicon":"DRSC11280","mitotic cells, replicate 1":7,"Call":"inactive"}
{"target":"Sgs3 (Salivary gland secretion 3)","amplicon":"DRSC28210","mitotic cells, replicate 1":2,"Call":"inactive"}
{"target":"CG14073","amplicon":"DRSC10078","mitotic cells, replicate 1":4,"Call":"inactive"}
{"target":"CG14073","amplicon":"DRSC27001","mitotic cells, replicate 1":5,"Call":"inactive"}
{"target":"mthl3 (methuselah-like 3)","amplicon":"DRSC06997","mitotic cells, replicate 1":6,"Call":"inactive"}
{"target":"mthl3 (methuselah-like 3)","amplicon":"DRSC24927","mitotic cells, replicate 1":5,"Call":"inactive"}
{"target":"CG7694","amplicon":"DRSC16288","mitotic cells, replicate 1":6,"Call":"inactive"}
{"target":"CG4553","amplicon":"DRSC15595","mitotic cells, replicate 1":9,"Call":"inactive"}
{"target":"CG4553","amplicon":"DRSC28957","mitotic cells, replicate 1":2,"Call":"inactive"}
{"target":"Coa8 (Cytochrome c oxidase assembly factor 8)","amplicon":"DRSC17959","mitotic cells, replicate 1":14,"Call":"inactive"}
{"target":"CG10205","amplicon":"DRSC05979","mitotic cells, replicate 1":5,"Call":"inactive"}
{"target":"Slip1 (SLo interacting protein 1)","amplicon":"DRSC17146","mitotic cells, replicate 1":4,"Call":"inactive"}
{"target":"Tmx3 (Thioredoxin-related transmembrane protein 3)","amplicon":"DRSC10471","mitotic cells, replicate 1":6,"Call":"inactive"}
{"target":"CG1635","amplicon":"DRSC15131","mitotic cells, replicate 1":5,"Call":"inactive"}
{"target":"CG1635","amplicon":"DRSC25487","mitotic cells, replicate 1":7,"Call":"inactive"}
